In PubChem BioAssay AID2685 (National Center for Advancing Translational Sciences (NCATS), 2010):
The other results are listed elsewhere or left out. These are further read-outs of the screen, such as a control signal, another cell line or another target. No call is given for them. Compounds called inactive in the main read-out are mostly missing here. Words in brackets tell the shape of the fitted curve; partial curves, single points and poor fits give uncertain potencies.

Assay: qHTS Assay for Lipid Storage Modulators in Drosophila S3 Cells;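 on cell number change: cells counted by Cell Tracker Red CMTPX staining in the red channel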
Conditions: BODIPY lipid droplet fluorescence, 18-24 h; for cell number change: measured here: cell count max response, cells fed with added oleic acid
How it was run: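 Drosophila S3 cells got compounds at several concentrations plus oleic acid (400 uM solution). Laser-scanning cytometry with 488 nm excitation read lipid droplets at 500-530 nm and cells at 575-640 nm. Percent activity was relative to 20 uM Triacsin C.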

[1] = measured here: lipid fluorescence (Fed channel) AC50, cells fed with added oleic acid
[2] = measured here: cell number channel AC50, cells fed with added oleic acid

Compound	AC50 [1]	cell number change	AC50 [2]
CCOc1ccc(NC(=S)N2c3ccccc3CC2C)cc1 (centres undefined)	580 nM [rising, single point]	–	–
COc1ccc(F)cc1S(=O)(=O)NC1CCCC1	–	-25.6%	–
C=CCOC(=O)C1=C(C)NC(=O)NC1c1ccc(Cl)cc1 (centres undefined)	4.61 nM [falling, full curve, poor fit]	-11.5%	–
NNC(=O)c1cccc(COc2ccc3c(c2)CCC3)c1	517 nM [rising, full curve]	0.11%	231 nM [rising, full curve, poor fit]
CCCCN(CC)CCNc1c(NC2CCN(C(=O)OCC)CC2)c(=O)c1=O	651 nM [falling, full curve, poor fit]	2.03%	–
CCC(C(=O)OC)n1cnc2scc(-c3ccc(C)c(C)c3)c2c1=O (centres undefined)	–	1.17%	–
CC1CCC2(CC1)NC(=O)N(NC(=O)CSc1nnc(NC3CC3)s1)C2=O (centres undefined)	–	-3.06%	–
COc1cc(C(=S)N2CCCC2)cc(Cl)c1OCC(=O)Nc1ccc(C)cc1C	1840 nM [rising, partial curve]	15.8%	–
CCn1c2ccc(C)cc2c2n[nH]c(=S)nc21	580 nM [rising, single point]	2.93%	–
COc1ccccc1-c1nnc(SCCN2CCOCC2)n1-c1ccc(C)cc1	29100 nM [rising, single point]	3.71%	–
O=C(N/N=C/c1ccncc1)c1cc(-c2ccc(Br)s2)[nH]n1	2310 nM [rising, partial curve]	12.4%	–
CCC1CSC(Nc2ccc(C(=O)/C=C/c3ccc(Br)cc3)cc2)=N1 (centres undefined)	16400 nM [falling, single point]	-8.07%	–
O=C(CCNc1cccc(C(F)(F)F)c1)c1ccco1	–	54.2%	16400 nM [rising, partial curve]
Cc1nc(SCC(=O)Nc2cc(Cl)ccc2[N+](=O)[O-])nc(C)c1C	146 nM [falling, full curve, poor fit]	-28.6%	920 nM [falling, full curve, poor fit]
O=C(Nc1ccc(NC(=O)c2ccccc2Br)cc1)c1ccccc1	–	60.6%	32600 nM [rising, partial curve, poor fit]
Cc1cc2c(OCC(O)CNC3CCCCC3)cccc2[nH]1 (centres undefined)	20600 nM [falling, single point]	-45.2%	29100 nM [falling, single point]
O=C(NC(=S)Nc1ccc(N2CCOCC2)c(Cl)c1)C(c1ccccc1)c1ccccc1	5.17 nM [falling, full curve, poor fit]	-1.41%	103 nM [falling, full curve, poor fit]

2 consecutive records out of the list so far, for reference:
Compound	AC50 [1]	cell number change	AC50 [2]
CCCCN(CC)CCNc1c(NC2CCN(C(=O)OCC)CC2)c(=O)c1=O	651 nM [falling, full curve, poor fit]	2.03%	–
CCC(C(=O)OC)n1cnc2scc(-c3ccc(C)c(C)c3)c2c1=O (centres undefined)	–	1.17%	–
